The entries are a selection whose mix differs from that of the whole data set. At the low end of the ranking the order means little.
Key:
Test in all cases: DAPPL (digital affinity profiling via proximity ligation, sequencing)
Settings in all cases: 10 mM Tris-HCl pH 7.5, 50 mM NaCl, 1 mM DTT, 4% glycerol, room temperature, 30 min; GST-TFs on glutathione beads, 16-mer random dsDNA library, 0.1% …; high values mean tight binding; double strand, one strand shown; scale: fold enrichment (6-mer frequency, TF over GST control)
FEV = target: T1, FEV (UniProt Q99581)
T1 sequence: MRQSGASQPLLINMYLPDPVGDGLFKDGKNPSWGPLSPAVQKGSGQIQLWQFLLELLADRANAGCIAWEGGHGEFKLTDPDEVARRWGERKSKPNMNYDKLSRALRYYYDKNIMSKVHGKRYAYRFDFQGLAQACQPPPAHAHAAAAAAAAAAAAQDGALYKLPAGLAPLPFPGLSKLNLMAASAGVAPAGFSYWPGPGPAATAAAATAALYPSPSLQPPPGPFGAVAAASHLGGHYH

Chains of the proteins cited; added tags and fusions are not shown. Lines headed by an entry give the natural chain unless they say otherwise; changes in a name come on top.
UniProt O43186: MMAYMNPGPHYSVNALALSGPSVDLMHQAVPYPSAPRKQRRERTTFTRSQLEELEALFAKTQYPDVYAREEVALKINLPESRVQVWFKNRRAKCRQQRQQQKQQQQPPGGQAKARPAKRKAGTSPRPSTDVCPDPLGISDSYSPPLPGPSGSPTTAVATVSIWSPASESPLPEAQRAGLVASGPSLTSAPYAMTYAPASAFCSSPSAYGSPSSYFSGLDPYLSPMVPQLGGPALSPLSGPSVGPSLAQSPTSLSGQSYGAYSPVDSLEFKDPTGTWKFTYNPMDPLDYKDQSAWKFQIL

CRX = CRX (UniProt O43186)
ELF5 = target: T2, ELF5 (UniProt Q9UKW6-2)
T2 sequence: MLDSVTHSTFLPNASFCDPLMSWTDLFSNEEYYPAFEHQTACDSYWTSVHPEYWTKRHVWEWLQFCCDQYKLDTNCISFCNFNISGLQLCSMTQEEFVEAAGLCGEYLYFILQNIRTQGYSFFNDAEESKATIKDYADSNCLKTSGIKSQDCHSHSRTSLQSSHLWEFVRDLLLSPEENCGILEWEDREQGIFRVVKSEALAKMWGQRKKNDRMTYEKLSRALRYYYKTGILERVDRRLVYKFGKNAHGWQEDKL

Sequence	binding signal (FEV)	binding signal (CRX)	binding signal (ELF5)
CGTGCG	0.678	0.49	0.61
GTAGTC	0.667	0.547	0.729
GACAAA	0.983	0.836	0.945
GTCGGG	0.213	0.184	0.223
AGACCC	0.704	0.601	0.67
TGTGTC	0.691	0.556	0.747
AAGGGG	0.926	0.915	0.966
TTGGAG	0.511	0.512	0.496
CCGTAG	0.785	0.707	0.841
GCAGGC	0.674	0.544	0.692
CAAGAC	0.814	0.759	0.859
AAAGGA	0.884	0.979	0.98
GGGCAC	0.812	0.553	0.735
GCATGA	0.811	0.677	0.753
GGTGCC	0.717	0.489	0.675
GGGAGG	0.297	0.235	0.301
AGGAGT	0.328	0.307	0.349
GGACTA	0.864	0.976	0.83
GATGAG	0.815	0.821	0.834
AGAGTC	0.405	0.404	0.433
CAGGGT	0.834	0.666	0.845

Sequence	binding signal (FEV)	binding signal (CRX)	binding signal (ELF5)
GGACCC	0.823	0.602	0.806
CCGAGG	0.728	0.601	0.662
CAGTCA	0.478	0.39	0.505
CAGGAC	0.784	0.536	0.819
CAGCTG	0.845	0.746	0.753
GAGCAC	0.725	0.533	0.636
TCGGAT	0.587	0.99	0.537
AGAGTT	0.73	0.733	0.825
GGGAAC	0.635	0.496	0.743
AGGCAT	0.793	0.83	0.798
TGCCGT	0.834	0.686	0.849
CGTCAG	0.8	0.621	0.804
GGTAGA	0.648	0.58	0.659
ACAGTA	0.851	0.82	0.808
CGGTCA	0.852	0.542	0.753
GGTGGG	0.631	0.507	0.634
AGGCCT	0.952	1.07	0.93
GTTAGA	0.768	0.737	0.721
CCCGTG	0.538	0.421	0.528
ATGTGA	0.663	0.588	0.644
GCAGTG	0.53	0.445	0.566

Sequence	binding signal (FEV)	binding signal (CRX)	binding signal (ELF5)
GTACGG	0.849	0.602	0.868
GAGCCC	0.759	0.615	0.703
GCGGAC	0.724	0.482	0.661
GCGTAG	0.735	0.628	0.79
TGCGTG	0.652	0.506	0.7
GCGTGA	0.254	0.218	0.268
GGGTGC	0.723	0.502	0.777
TCAGGT	0.822	0.866	0.792
AGTTAG	0.843	0.747	0.825
GCACAG	0.741	0.552	0.731
GGAGCG	0.359	0.298	0.373
TAGACG	0.767	0.841	0.724
CAGCCA	0.837	0.686	0.79
CCGCGA	0.691	0.59	0.695
GCATCA	0.723	0.644	0.708
GTAGGG	0.723	0.594	0.749
GGGTTA	0.765	0.934	0.831
GATCGT	0.425	0.424	0.391
GACAGC	0.743	0.57	0.763
GGGTCA	0.707	0.51	0.703
TGGGTC	0.64	0.489	0.648

Pulled one by one from above (5):
Sequence	binding signal (FEV)	binding signal (CRX)	binding signal (ELF5)
GGAGCG	0.359	0.298	0.373
GCGTAG	0.735	0.628	0.79
GATCGT	0.425	0.424	0.391
GCACAG	0.741	0.552	0.731
TCAGGT	0.822	0.866	0.792

Remaining list, next part.

Sequence	binding signal (FEV)	binding signal (CRX)	binding signal (ELF5)
GTACCG	0.85	0.434	0.757
TCGTGA	0.348	0.322	0.338
AGGTGG	0.599	0.53	0.601
CAGTCC	0.635	0.444	0.614
GTCATC	0.842	0.662	0.898
ACGGGT	0.932	0.777	0.868
CGGCGA	0.792	0.602	0.737
ACGTAG	0.762	0.675	0.774
GGACAA	0.796	0.616	0.844
AGACGA	0.715	0.73	0.673
AGGGTA	0.845	0.833	0.909
GACGTG	0.336	0.238	0.327
GGTCGC	0.785	0.467	0.763
AGCACC	0.925	0.759	0.868
AGTCAA	0.601	0.536	0.609
ACACGT	0.779	0.663	0.752
GCGAGT	0.544	0.42	0.502
GACTGG	0.618	0.546	0.584
GGCGTG	0.291	0.234	0.316
GGGGTC	0.58	0.46	0.58
GTGCAA	0.991	0.693	0.882

Reference: publication PMC7862700
